The test system of the assay is P388 leukemia ip, CD2F1 mice, survival T/C. In words: NCI In Vivo Anticancer Drug Screen. Data for tumor model P388 Leukemia (intraperitoneal) in CD2F1 (CDF1) mice. The conditions noted are these: T/C endpoint: median survival time, higher T/C = longer survival.
Where [1] appears, read: dose: 50.0 mg/kg/injection, schedule: Q01DX009 (ip), vehicle: saline with Tween-80.
Where [2] appears, read: dose: 200.0 mg/kg/injection, schedule: Q01DX009 (ip), vehicle: saline with Tween-80.
Setting [3] is: dose: 200.0 mg/kg/injection, schedule: Q01DX009 (ip), vehicle: saline.
Setting [4] is: dose: 400.0 mg/kg/injection, schedule: Q01DX009 (ip), vehicle: saline with Tween-80.
Setting [5] is: dose: 50.0 mg/kg/injection, schedule: Q01DX009 (ip), vehicle: Klucel (hydroxypropylcellulose) (HPC).

The list does not hold the whole screen: it gathers tests that were run many times, whatever their T/C, doses with no T/C, and many T/C values between a quarter and a half above the control. Other doses and runs of a compound stand elsewhere. T/C is the treated group as % of the vehicle group. Some entries give survivors of the animals treated and no T/C: the source files T/C as zero there, which appears to mark a toxic dose or a test without result, not a measured value. Some doses without a T/C left all or most animals alive at the check, yet need not have been tolerated: the source hardly ever lists a survival T/C far under the control, and the zero likely stands for such cases as well. Counts of survivors are from the toxicity check (mostly the fifth day) where no day follows; animals may have died later. Schedules are NCI's codes, taken here to give the interval after Q, in days (D) or hours (H), and the number of doses after X. Where survival is the endpoint, this PubChem deposit counts one and a half times the control or more as active, and values a quarter to a half above the control carry no call in these data; other NCI protocols may use other cut-offs. Some doses were run more than once; their values stand side by side, smallest first. Some T/C values carry the count of animals alive at the toxicity check (mostly the fifth day); without a count, all were alive then.

`COc1cc2c(c(OC)c1OC)-c1ccc(OC)c(=O)cc1C(N(C)C(=O)CO)CC2` (stereo unspecified): the T/C by setting is: (dose: 0.16 mg/kg/injection, schedule: Q01DX009 (ip), vehicle: saline) 143 % of control; (dose: 0.31 mg/kg/injection, schedule: Q01DX009 (ip), vehicle: Klucel (hydroxypropylcellulose) (HPC)) 131 % of control; (dose: 0.31 mg/kg/injection, schedule: Q01DX009 (ip), vehicle: saline) 143 % of control; (dose: 0.62 mg/kg/injection, schedule: Q01DX009 (ip), vehicle: Klucel (hydroxypropylcellulose) (HPC)) 137 % of control. In addition, the survivor count is given as 4 of 5 (dose: 1.25 mg/kg/injection, schedule: Q01DX009 (ip), vehicle: saline); 4 of 6 (dose: 2.5 mg/kg/injection, schedule: Q01DX009 (ip), vehicle: Klucel (hydroxypropylcellulose) (HPC)); 0 of 5 (dose: 2.5 mg/kg/injection, schedule: Q01DX009 (ip), vehicle: saline); 2 of 6 (dose: 5.0 mg/kg/injection, schedule: Q01DX009 (ip), vehicle: Klucel (hydroxypropylcellulose) (HPC)); 0 of 6 (dose: 10.0 mg/kg/injection, schedule: Q01DX009 (ip), vehicle: Klucel (hydroxypropylcellulose) (HPC)); 0 of 6 (dose: 20.0 mg/kg/injection, schedule: Q01DX009 (ip), vehicle: Klucel (hydroxypropylcellulose) (HPC)). Further, the survivor count (dose: 40.0 mg/kg/injection, schedule: Q01DX009 (ip), vehicle: Klucel (hydroxypropylcellulose) (HPC)) is reported as 0 of 6.

With `O=C1c2ccccc2C(=O)c2c1oc1c2ccc2ccccc21`, the survivor count under setting [1] is given as 6 of 6 and the survivor count under setting [2] is on record as 6 of 6.

Take `CN1CC2CCCCN2CC(Cc2ccccc2)([N+](=O)[O-])C1` (stereo unspecified): the survivor count (dose: 400.0 mg/kg/injection, schedule: Q04DX002 (ip), vehicle: saline) is reported as 4 of 6.

Turning to `CN=C/C(C(C)=O)=C(\C)O`, the survivor count under setting [3] was 0 of 6.

With `CC(OC(=O)c1ccccc1C(=O)O)c1ccccc1` (stereo unspecified), the survivor count is listed as 1 of 6 (dose: 100.0 mg/kg/injection, schedule: Q01DX009 (ip), vehicle: saline) and 0 of 6 under setting [3].

For `O=C(O)C1Cc2nc[nH]c2CN1CO` (stereo unspecified), the T/C by setting is: under setting [2], 127 and 135 % of control; under setting [4], 132 % of control.

Regarding `NC1CC2c3ccccc3C1c1ccccc12` (stereo unspecified), the survivor count is given as 3 of 6 (dose: 100.0 mg/kg/injection, schedule: Q01DX005 (ip), vehicle: saline with Tween-80) and 0 of 6 (dose: 200.0 mg/kg/injection, schedule: Q01DX005 (ip), vehicle: saline with Tween-80).

Consider `Cc1ccc(C(C)(C)C[P+](C)(c2ccccc2)c2ccccc2)cc1`, for which the survivor count under setting [5] is given as 6 of 6.

For `Cc1ccc(S(=O)(=O)N(Cc2ccc(Cl)cc2)S(=O)(=O)c2ccc(C)cc2)cc1`, the survivor count under setting [5] is listed as 6 of 6 and the survivor count (dose: 100.0 mg/kg/injection, schedule: Q01DX009 (ip), vehicle: Klucel (hydroxypropylcellulose) (HPC)) was 6 of 6.

In the case of `O=NN(C(=O)NC1CCC(C(=O)O)CC1)C1CCC(C(=O)O)CC1` (stereo unspecified), the survivor count (dose: 400.0 mg/kg/injection, schedule: Q01DX001 (ip), vehicle: distilled water + Tween-80) was 0 of 6.

For `COC1=CC(=O)C(OC)=C(OC)C1=O`, the T/C under setting [1] is 126 [5 of 6 alive] and 133 % of control. Also, the survivor count is reported as 0 of 6 (dose: 100.0 mg/kg/injection, schedule: Q01DX009 (ip), vehicle: saline with Tween-80); 0 of 6 under setting [2]; 0 of 6 under setting [4].

For the compound `Nc1nsc2nc3ccccc3cc12`, the survivor count (dose: 50.0 mg/kg/injection, schedule: Q01DX005 (ip), vehicle: Klucel (hydroxypropylcellulose) (HPC)) is 0 of 6.

As for `O=NN(CCCl)C(=O)NC1CC2CCC1C2` (stereo unspecified), the survivor count (dose: 100.0 mg/kg/injection, schedule: Q04DX003 (ip), vehicle: saline with Tween-80) is 6 of 6.

The record behind these values is PubChem BioAssay AID330 (DTP/NCI, 2004).
